This test concerns the target γb-3xFlag (BSMV γb with a C-terminal 3xFlag epitope, expressed from RNAγ_(γb-3xFlag)) (Barley stripe mosaic virus). Nature of the test: affinity purification with mass spectrometry; total protein of BSMV-infected N. benthamiana leaves at 3 dpi, anti-FLAG-agarose beads, elution with FLAG peptides, LC-MS/MS; untagged virus as negative control.

Results are given in words; binding and its absence hold for the method and conditions named. Binding seen in cells or lysates may run through a third protein. A yes stands for co-enrichment or nearness to the bait. Other partners may have been found. Sequences can lack the tags named with a protein.

B1: BSMV coat protein (made during BSMV infection) (protein, UniProt P04866 1-198)
chain: MPNVSLTAKGGGHYIEDQWDTQVVEAGVFDDWWVHVEAWNKFLDNLRGINFSVASSRSQVAEYLAALDRDLPADVDRRFAGARGQIGSPNYLPAPKFFRLDKRTIAELTRLSRLTDQPHNNRDIELNRAKRATTNPSPPAQAPSENLTLRDVQPLKDSALHYQYVLIDLQSARLPVYTRKTFERELALEWIIPDAEEA
Consider B1, for which the binding entry was “binds”.

B2: BSMV TGB1 (untagged, made during BSMV infection) (protein, UniProt P04867 1-528)
chain: MDMTKTVEEKKTNGTDSVKGVFENSTIPKVPTGQEMGGDGSSTSKLKETLKVADQTPLSVDNGAKSKLDSSDRQVPGVADQTPLSVDNGAKSKLDSSDRQVPGPELKPNVKKSKKKRIQKPAQPSGPNDLKGGTKGSSQVGENVSENYTGISKEAAKQKQKTPKSVKMQSNLADKFKANDTRRSELINKFQQFVHETCLKSDFEYTGRQYFRARSNFFEMIKLASLYDKHLKECMARACTLERERLKRKLLLVRALKPAVDFLTGIISGVPGSGKSTIVRTLLKGEFPAVCALANPALMNDYSGIEGVYGLDDLLLSAVPITSDLLIIDEYTLAESAEILLLQRRLRASMVLLVGDVAQGKATTASSIEYLTLPVIYRSETTYRLGQETASLCSKQGNRMVSKGGRDTVIITDYDGETDETEKNIAFTVDTVRDVKDCGYDCALAIDVQGKEFDSVTLFLRNEDRKALADKHLRLVALSRHKSKLIIRADAEIRQAFLTGDIDLSSKASNSHRYSAKPDEDHSWFKAK
Turning to B2, the binding entry was “binds”.

For the origin of these results see PMC7419011.
